These are yes or no findings as the source states them, for the method shown. Some entries that bind do so weakly or less than the wild type.

Sequences of proteins named here, by UniProt entry; tags and fusion partners are left off. A change or cut given only in a name is not applied to a line headed by its entry.
UniProt P17948: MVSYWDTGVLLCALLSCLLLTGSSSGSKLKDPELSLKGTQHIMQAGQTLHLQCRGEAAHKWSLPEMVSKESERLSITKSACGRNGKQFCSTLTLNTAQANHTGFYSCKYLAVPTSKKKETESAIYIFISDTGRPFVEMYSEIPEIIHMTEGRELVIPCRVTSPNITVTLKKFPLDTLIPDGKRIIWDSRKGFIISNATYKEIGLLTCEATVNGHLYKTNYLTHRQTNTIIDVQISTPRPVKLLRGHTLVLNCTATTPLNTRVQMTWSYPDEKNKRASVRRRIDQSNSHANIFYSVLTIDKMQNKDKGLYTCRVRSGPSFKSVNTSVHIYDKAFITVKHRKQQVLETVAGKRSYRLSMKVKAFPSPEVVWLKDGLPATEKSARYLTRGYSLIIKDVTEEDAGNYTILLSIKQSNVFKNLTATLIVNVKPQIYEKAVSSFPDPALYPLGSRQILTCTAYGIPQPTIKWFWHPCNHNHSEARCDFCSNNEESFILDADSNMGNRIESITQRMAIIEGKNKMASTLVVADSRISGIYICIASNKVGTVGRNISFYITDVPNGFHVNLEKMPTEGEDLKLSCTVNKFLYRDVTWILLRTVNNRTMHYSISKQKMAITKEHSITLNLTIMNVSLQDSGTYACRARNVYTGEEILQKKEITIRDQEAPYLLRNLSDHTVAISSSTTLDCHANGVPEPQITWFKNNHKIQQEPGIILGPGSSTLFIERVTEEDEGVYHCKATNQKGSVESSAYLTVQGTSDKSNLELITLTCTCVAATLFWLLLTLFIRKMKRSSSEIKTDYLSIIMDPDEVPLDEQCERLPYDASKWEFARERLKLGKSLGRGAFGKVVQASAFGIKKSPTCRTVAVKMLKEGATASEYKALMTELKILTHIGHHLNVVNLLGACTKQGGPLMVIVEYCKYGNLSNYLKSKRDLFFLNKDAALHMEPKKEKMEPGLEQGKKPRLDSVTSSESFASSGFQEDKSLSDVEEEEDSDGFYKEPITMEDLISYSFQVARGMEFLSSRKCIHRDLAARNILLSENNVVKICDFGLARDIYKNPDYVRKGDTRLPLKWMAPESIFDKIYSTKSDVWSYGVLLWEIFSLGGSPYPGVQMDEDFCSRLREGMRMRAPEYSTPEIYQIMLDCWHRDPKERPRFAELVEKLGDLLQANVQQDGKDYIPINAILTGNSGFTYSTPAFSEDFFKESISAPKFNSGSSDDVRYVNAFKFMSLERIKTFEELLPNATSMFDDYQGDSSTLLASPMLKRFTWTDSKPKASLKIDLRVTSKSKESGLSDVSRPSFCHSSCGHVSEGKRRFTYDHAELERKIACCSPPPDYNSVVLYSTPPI

This test concerns the target T1, recombinant human PlGF (human) (UniProt P49763).
T1 sequence (125I label (chloramine T method) in the tracer form, looked up): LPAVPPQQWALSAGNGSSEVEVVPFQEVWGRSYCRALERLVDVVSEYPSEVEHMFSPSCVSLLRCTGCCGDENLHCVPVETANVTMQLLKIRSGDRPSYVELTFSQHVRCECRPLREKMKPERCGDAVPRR
As to the kind of experiment: covalent crosslinking (BS3) with [125I]PlGF, SDS/PAGE; competed by excess unlabeled PlGF.

In the case of “sVEGF-RI, natural soluble form of the FLT VEGF receptor, expressed by baculovirus in Sf9 insect cells (from UniProt P17948 27-656)”, the binding entry is listed as “binds”.

For the origin of these results see patent US20030120038A1.
